From publication doi:10.1101/2022.08.09.503213 (bioRxiv, 2022)
These are yes or no findings as the source states them, for the method shown. Some entries that bind do so weakly or less than the wild type. For some assays here: Tags and fused reporters may be left off the sequences shown. Each block holds one binder with its values, some of them ahead of it.

Tests used:
[1] = target: human IFT-A complex, wild type (IFT144·IFT140·IFT122·IFT121·IFT43·IFT139) (human) (UniProt Q8NEZ3+Q96RY7+Q9HBG6+Q9P2L0+Q96FT9+Q7Z4L5); assay: SEC
[2] = target: T1, IFT139 (from ^ZZ-SNAPIFT139, TEV-cleaved) (human) (UniProt Q7Z4L5); assay: cryo-EM structure
T1 sequence: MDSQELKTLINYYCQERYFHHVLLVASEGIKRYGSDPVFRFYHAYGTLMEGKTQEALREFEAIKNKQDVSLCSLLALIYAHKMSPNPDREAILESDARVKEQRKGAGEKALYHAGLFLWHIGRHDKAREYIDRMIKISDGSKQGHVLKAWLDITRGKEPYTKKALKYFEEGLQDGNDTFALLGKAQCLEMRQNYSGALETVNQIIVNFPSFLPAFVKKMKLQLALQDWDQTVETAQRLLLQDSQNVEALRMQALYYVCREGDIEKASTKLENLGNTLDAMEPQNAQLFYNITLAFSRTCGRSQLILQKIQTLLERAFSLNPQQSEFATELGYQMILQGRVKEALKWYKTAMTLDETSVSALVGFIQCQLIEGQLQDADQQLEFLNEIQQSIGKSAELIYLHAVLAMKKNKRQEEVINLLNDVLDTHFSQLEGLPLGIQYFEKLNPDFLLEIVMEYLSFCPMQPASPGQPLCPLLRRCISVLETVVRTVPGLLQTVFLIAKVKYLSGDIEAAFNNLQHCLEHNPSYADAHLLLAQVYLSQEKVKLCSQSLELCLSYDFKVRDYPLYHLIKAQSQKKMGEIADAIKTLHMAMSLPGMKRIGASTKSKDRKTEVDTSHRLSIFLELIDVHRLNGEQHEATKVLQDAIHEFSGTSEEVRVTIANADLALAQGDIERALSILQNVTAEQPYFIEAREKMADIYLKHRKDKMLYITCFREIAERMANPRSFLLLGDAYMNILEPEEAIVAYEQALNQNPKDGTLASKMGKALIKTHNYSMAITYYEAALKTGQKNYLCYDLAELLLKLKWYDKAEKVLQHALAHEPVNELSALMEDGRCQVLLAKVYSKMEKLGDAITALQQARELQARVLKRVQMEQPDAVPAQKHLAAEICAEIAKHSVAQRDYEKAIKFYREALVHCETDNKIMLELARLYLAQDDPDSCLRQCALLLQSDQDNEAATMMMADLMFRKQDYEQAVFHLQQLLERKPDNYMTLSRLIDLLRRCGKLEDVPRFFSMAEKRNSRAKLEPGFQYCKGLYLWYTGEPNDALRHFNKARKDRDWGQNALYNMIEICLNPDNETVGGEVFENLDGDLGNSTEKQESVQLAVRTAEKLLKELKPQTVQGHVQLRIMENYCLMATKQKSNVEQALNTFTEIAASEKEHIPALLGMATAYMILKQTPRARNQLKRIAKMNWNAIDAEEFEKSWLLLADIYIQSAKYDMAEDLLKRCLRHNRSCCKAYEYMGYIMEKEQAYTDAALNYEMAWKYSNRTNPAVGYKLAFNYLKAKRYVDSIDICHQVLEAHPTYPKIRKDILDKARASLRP

[3] = target: T2, IFT122 (untagged) (human) (UniProt Q9HBG6); assay: cryo-EM structure
T2 sequence: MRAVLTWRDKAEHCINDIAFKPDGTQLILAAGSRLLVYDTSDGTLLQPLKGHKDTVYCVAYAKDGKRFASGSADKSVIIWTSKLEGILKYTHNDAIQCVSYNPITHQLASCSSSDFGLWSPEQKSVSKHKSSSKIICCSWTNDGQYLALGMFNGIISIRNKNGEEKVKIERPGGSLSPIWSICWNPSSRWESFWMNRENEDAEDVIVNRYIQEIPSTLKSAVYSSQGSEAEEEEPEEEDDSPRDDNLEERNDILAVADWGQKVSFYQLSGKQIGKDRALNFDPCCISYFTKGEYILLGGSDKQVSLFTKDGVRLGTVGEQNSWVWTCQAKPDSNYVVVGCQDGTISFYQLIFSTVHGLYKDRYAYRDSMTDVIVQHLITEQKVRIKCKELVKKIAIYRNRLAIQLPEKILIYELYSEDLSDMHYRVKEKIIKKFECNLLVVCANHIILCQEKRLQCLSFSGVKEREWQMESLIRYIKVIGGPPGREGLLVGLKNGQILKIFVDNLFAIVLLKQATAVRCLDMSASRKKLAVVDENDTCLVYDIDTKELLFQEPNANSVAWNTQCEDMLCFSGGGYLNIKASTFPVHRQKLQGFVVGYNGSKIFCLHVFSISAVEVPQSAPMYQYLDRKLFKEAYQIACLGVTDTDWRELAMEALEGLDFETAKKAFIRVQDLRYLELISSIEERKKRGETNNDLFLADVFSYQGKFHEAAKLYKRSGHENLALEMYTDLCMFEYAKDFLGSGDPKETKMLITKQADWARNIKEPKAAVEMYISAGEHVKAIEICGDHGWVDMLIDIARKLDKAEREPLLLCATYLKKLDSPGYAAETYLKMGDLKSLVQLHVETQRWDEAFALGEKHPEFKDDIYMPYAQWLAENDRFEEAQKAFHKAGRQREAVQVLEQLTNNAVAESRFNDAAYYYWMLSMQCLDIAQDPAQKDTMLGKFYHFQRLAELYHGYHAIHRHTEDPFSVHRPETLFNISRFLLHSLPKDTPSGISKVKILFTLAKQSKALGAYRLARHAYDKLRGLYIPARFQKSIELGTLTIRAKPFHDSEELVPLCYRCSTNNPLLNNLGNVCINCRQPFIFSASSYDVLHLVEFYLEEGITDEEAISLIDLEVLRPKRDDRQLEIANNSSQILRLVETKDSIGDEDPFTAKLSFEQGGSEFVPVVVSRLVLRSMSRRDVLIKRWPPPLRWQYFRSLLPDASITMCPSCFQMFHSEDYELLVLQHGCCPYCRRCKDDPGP

[4] = target: T3, IFT121 (from ^ZZIFT121, TEV-cleaved) (human) (UniProt Q9P2L0); assay: cryo-EM structure
T3 sequence: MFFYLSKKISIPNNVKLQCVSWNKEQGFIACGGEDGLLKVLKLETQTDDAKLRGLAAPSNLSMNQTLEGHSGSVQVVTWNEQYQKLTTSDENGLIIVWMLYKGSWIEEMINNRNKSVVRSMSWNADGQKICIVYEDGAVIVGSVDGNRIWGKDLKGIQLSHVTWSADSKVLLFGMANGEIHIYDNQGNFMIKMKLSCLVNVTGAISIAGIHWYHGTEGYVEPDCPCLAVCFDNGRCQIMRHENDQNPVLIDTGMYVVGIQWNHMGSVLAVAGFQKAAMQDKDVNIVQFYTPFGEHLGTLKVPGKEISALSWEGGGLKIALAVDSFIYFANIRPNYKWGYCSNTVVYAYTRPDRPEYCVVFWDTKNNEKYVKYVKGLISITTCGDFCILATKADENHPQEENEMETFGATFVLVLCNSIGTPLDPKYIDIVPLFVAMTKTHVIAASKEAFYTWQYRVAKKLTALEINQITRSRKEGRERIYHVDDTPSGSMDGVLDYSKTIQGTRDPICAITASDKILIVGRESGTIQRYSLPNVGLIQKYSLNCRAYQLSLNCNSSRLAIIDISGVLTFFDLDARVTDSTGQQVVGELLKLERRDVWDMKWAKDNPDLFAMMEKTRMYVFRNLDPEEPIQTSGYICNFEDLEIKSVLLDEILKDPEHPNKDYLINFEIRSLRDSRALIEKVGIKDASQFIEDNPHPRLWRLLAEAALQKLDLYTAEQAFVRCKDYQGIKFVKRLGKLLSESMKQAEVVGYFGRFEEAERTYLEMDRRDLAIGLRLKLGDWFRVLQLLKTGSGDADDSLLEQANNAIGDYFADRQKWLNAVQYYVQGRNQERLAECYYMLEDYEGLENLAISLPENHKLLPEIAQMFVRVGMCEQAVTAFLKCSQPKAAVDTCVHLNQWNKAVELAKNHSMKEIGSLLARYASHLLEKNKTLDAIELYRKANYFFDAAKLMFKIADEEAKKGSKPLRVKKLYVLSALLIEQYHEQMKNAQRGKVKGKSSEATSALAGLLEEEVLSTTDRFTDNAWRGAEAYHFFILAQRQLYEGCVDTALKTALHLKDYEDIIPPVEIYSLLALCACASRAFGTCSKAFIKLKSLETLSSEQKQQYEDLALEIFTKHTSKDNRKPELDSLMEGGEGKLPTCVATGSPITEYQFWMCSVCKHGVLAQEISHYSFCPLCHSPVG

- binding [1]: binds
B1: TULP3, full-length human (from TULP3^ZZ, TEV-cleaved) (protein, UniProt O75386 1-442)
chain: MEASRCRLSPSGDSVFHEEMMKMRQAKLDYQRLLLEKRQRKKRLEPFMVQPNPEARLRRAKPRASDEQTPLVNCHTPHSNVILHGIDGPAAVLKPDEVHAPSVSSSVVEEDAENTVDTASKPGLQERLQKHDISESVNFDEETDGISQSACLERPNSASSQNSTDTGTSGSATAAQPADNLLGDIDDLEDFVYSPAPQGVTVRCRIIRDKRGMDRGLFPTYYMYLEKEENQKIFLLAARKRKKSKTANYLISIDPVDLSREGESYVGKLRSNLMGTKFTVYDRGICPMKGRGLVGAAHTRQELAAISYETNVLGFKGPRKMSVIIPGMTLNHKQIPYQPQNNHDSLLSRWQNRTMENLVELHNKAPVWNSDTQSYVLNFRGRVTQASVKNFQIVHKNDPDYIVMQFGRVADDVFTLDYNYPLCAVQAFGIGLSSFDSKLACE

- binding [2]: binds
- binding [3]: binds
B2: IFT121 (from ^ZZIFT121, TEV-cleaved) (protein, UniProt Q9P2L0 1-1181)
chain: T3 sequence

- binding [4]: binds
- binding [2]: binds
B3: IFT43 (untagged, or from ^ZZIFT43 after TEV cleavage) (protein, UniProt Q96FT9 1-208)
chain: MEDLLDLDEELRYSLATSRAKMGRRAQQESAQAENHLNGKNSSLTLTGETSSAKLPRCRQGGWAGDSVKASKFRRKASEEIEDFRLRPQSLNGSDYGGDIPIIPDLEEVQEEDFVLQVAAPPSIQIKRVMTYRDLDNDLMKYSAIQTLDGEIDLKLLTKVLAPEHEVREDDVGWDWDHLFTEVSSEVLTEWDPLQTEKEDPAGQARHT
